Binding data for two substances are collected here from patent publication US20160195533A1, “METHOD FOR SCREENING EMT INHIBITOR” (Medicinal Bioconvergence Research Center, priority 2015, published 2016).

By UniProt entry, the sequences of proteins in these tests, tags left out. Where a name states a change or a piece, a line headed by the entry shows the natural chain unless it says otherwise.
UniProt O95863: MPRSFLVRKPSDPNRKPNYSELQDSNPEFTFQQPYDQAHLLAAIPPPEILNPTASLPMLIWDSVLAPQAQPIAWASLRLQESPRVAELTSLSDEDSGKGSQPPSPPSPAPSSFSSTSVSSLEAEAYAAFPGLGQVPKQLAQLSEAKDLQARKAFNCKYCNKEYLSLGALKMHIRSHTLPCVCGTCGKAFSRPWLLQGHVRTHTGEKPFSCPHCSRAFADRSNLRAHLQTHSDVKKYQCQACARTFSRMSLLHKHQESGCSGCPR
UniProt P07814: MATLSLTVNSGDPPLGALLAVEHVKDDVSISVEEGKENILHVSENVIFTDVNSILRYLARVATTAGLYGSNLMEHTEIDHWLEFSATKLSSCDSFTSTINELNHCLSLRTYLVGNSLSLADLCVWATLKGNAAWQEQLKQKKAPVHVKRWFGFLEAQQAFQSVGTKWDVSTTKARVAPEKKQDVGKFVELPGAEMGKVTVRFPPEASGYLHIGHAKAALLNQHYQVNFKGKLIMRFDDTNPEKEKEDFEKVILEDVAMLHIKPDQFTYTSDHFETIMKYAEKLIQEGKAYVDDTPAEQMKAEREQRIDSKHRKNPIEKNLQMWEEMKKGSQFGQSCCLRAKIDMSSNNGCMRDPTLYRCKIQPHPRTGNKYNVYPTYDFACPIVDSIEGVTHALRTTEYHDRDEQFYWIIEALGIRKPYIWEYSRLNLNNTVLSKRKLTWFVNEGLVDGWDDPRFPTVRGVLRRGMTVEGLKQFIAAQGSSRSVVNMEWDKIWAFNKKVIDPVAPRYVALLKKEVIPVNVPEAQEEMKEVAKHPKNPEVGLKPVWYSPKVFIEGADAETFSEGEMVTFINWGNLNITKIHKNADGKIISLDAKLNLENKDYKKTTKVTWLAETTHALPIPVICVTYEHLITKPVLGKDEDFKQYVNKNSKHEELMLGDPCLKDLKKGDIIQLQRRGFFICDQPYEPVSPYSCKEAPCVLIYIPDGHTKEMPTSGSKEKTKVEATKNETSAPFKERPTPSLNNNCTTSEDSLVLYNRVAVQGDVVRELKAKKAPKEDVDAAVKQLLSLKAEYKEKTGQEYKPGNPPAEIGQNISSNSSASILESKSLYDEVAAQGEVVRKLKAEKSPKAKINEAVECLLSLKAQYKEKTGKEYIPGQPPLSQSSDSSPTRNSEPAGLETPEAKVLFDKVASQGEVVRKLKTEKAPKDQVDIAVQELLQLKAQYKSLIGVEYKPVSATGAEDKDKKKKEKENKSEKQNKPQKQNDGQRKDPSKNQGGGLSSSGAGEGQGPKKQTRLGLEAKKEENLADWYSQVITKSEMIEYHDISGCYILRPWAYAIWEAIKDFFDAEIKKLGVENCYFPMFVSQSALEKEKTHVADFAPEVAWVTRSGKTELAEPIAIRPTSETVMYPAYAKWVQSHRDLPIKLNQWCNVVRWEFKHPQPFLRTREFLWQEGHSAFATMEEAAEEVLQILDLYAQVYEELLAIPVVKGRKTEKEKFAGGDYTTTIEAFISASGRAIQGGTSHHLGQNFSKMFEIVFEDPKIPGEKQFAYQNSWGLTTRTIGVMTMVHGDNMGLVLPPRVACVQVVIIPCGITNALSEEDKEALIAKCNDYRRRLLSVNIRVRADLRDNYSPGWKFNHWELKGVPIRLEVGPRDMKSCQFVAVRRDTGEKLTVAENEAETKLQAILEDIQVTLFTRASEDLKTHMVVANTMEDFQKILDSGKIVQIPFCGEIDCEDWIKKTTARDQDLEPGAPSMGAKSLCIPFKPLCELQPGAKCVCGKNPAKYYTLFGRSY

Results are given in words; binding and its absence hold for the method and conditions named. In cells and extracts the contact can be indirect. Some results given as binding are weak or reduced against the parent protein; the word gives no strength.

The target in test [1] is Flag-tagged Snail1 (pCMV-Tag2B N-terminal Flag-tagged Snail1 expression vector, Addgene) (human) (UniProt O95863). The test can be described thus: Strep pull-down (MagSTREP type 2HC) from co-transfected HEK293T cells, anti-Flag western blot. (In general: In western blotting, separated proteins are transferred to a membrane and probed.)
The target in test [2] is glutamyl-prolyl-tRNA synthetase (EPRS), endogenous protein of A549 or HEK293T cells (human) (UniProt P07814). The test can be described thus: Strep pull-down (MagSTREP type 2HC) from HEK293T lysate, anti-EPRS western blot.

On to “2× Strep-tagged EPRS (pEXPR-2×IBA105-EPRS) (from UniProt P07814 1-1512) (enzyme)”, for which the binding entry in test [1] is recorded as “binds”.
Take “Strep-tagged Snail1 (pEXPR-IBA105-Snail1) (from UniProt O95863 1-264)”: in test [2], the binding entry is on record as “binds”.
